# About 770 (0.35%) of roughly 220,000 compounds were called active. Inconclusive means that the source gave no clear call. Such entries were picked first, then a sample of the others. No stated cut-off is given here; in the data, active means binding response below about 49% or above about 150%; inconclusive means no clear call, values can overlap the other calls; inactive means in between.
# Chains of the proteins cited; added tags and fusions are not shown.
# UniProt P09471, whole entry, looked up: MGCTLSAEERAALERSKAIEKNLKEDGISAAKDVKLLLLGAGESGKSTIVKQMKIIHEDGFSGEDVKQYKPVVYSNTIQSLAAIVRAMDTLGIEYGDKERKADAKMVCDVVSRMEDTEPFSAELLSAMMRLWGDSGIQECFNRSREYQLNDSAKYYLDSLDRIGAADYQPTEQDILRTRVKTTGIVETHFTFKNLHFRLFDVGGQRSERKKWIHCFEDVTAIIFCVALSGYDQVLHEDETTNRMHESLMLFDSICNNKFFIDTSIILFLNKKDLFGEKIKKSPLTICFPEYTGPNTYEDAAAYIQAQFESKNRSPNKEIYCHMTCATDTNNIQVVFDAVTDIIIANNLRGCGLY
# Target: Guanine nucleotide-binding protein G(o) subunit alpha (Homo sapiens) (UniProt P09471)
# Assay: RGS7-Galphao binding modulators, primary screen, biochemical, multiplexed bead flow cytometry (AID 1439);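 further: fluorescent Galphao held in activated GDP-AlF4 state binding bead-coupled RGS7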
# Conditions: at 10 µM, actives lie on both sides
row,Compound,binding response (% of control)
1,CCOc1ccccc1N1CCN(C(=O)c2ccc3[nH]c4c(c3c2)CCCC4)CC1,inactive: 81.3%
2,COc1ccc(C(=O)Nc2ccc(-c3cn4ccsc4n3)cc2)cc1S(=O)(=O)N1CCOCC1,active: -7.17%
3,C=CCN=C(NC#N)SC,inconclusive: 62.5%
4,O=C(/C=C/c1ccc2ccccc2n1)N1CCN(S(=O)(=O)c2ccc(F)cc2)CC1,inconclusive: 54.3%
5,Cc1cc(C(=O)N/N=C/c2ccncc2)c(C)o1,inconclusive: 49%
6,O=C(O)[C@H](Cc1ccccc1)NC(=O)N1CCN(c2ccc(F)cc2)CC1,inconclusive: 50%
7,O=C(CSc1nnc(-c2ccccc2O)n1-c1ccccc1)Nc1cccc(C(=O)O)c1,inconclusive: 101%
8,NC(=O)CC(NC(=O)Cc1ccc(Br)cc1)c1ccc(NCc2ccc(F)c(F)c2)c([N+](=O)[O-])c1 (stereo not drawn),inconclusive: 124%
9,O=C(NC(=O)c1ccccc1N1CCCCC1)Nc1ccc(Br)cc1,inconclusive: 132%
10,c1cc(C2CCN(Cc3nc(-c4ccc5c(c4)OCO5)no3)CC2)ccn1,inactive: 97.8%
11,CCOC(=O)/C(C#N)=C/Nc1cc(C(=O)OCC)cc2c(OC)c(OC)ccc12,inconclusive: 257%
12,CC(C)CNC(=O)/C=C/C(=O)O,inconclusive: 120%
13,O=C(CCN1C(=O)COc2ccccc21)N1CCN(c2ccccc2)CC1,inactive: 96%
14,Fc1cccc(Nc2nc(Cl)nc(Cl)n2)c1,inconclusive: 110%
15,C/C(CC(C)C)=N\Nc1ccc(S(N)(=O)=O)cc1[N+](=O)[O-],inactive: 105%
16,COc1cccc(NC(=O)CNC(=O)c2ccc(C)cc2)c1,inconclusive: 98.6%
17,Cn1cnnc1SCC(=O)N/N=C/c1ccc(OCC(N)=O)cc1,inconclusive: 105%
18,CN(CC(=O)Nc1ccc(F)cc1)CC(=O)Nc1ccc(Cl)c(S(=O)(=O)N2CCOCC2)c1,inconclusive: 60.1%
19,COc1ccc(C2=NOC(C(=O)Nc3cccnc3Cl)C2)cc1 (stereo not drawn),inactive: 98.6%
20,Cc1ccc(C(=O)O)cc1NC(=S)NC(=O)c1ccc(-c2ccc(Cl)cc2)o1,inconclusive: 108%

row,Compound,binding response (% of control)
1,CCCCN(CCCC)c1cn[nH]c(=O)c1Cl,active: 16.2%
2,CCc1nc2ccccc2n1Cc1ccccc1F,inconclusive: 117%
3,O=c1[nH]n(CCO)c(=O)c2cccnc12,inconclusive: 126%
4,Cc1nn(Cc2ccc(F)cc2)c2sc(C(=O)Nc3ccccc3N3CCOCC3)cc12,inactive: 90.8%
5,Cc1cc(C)c(NC(=O)NC(=O)C(Cl)(Cl)Cl)c(C)c1,inconclusive: 102%
6,COc1ccc(-c2nc3ccccc3s2)cc1NC(C)=O,inconclusive: 87.5%
7,CC(=O)Nc1sc2c(c1C(N)=O)CCN(Cc1ccccc1)C2,inconclusive: 105%
8,Cn1nc(-c2ccccc2)cc1NC(=O)C1CCCCC1,inconclusive: 75.1%
9,Cc1ccccc1OCc1csc(N)n1,inconclusive: 99.5%
10,O=C(CC1SCCNC1=O)Nc1ccc(Cl)c(Cl)c1 (stereo not drawn),inconclusive: 106%
11,O=C(/C=C/c1cc([N+](=O)[O-])ccc1OC(F)F)NCc1ccc(Cl)cc1,inactive: 104%
12,COc1ccc2cc1Oc1ccc(cc1)C[C@H]1c3cc(c(OC)cc3CCN1C)Oc1c(O)c(OC)cc3c1[C@H](C2)N(C)CC3,inconclusive: 86.2%
13,CCOc1cc(C(=O)NCC(=O)N/N=C/c2sccc2C)cc(OCC)c1OCC,inconclusive: 122%
14,CC(C)(C)Cn1c(=O)[nH]c(=O)c2cc([N+](=O)[O-])cnc21,inactive: 92.1%
15,Cc1ccc(S(=O)(=O)N2CCOCC2)cc1C(=O)OCC(=O)NC1CCS(=O)(=O)C1 (stereo not drawn),inactive: 101%
16,O=C(COc1cc(F)ccc1[N+](=O)[O-])NCCCc1ccccc1,inactive: 100%
17,COC(=O)Cc1[nH]nc2c1C(c1ccc(O)c(OC)c1)C(C#N)=C(N)O2 (stereo not drawn),inconclusive: 90.6%
18,CCC(=O)N(Cc1ccco1)c1nc(C(=O)Nc2ccc(Cl)cc2)c(C)s1,inactive: 108%
19,Cc1ccc(-c2nnc(SCC(=O)N3CCCC3)o2)cc1C,inactive: 98.3%
20,O=S(=O)(Cc1ccccc1Cl)NCc1ccccc1,inactive: 102%

# In another format: results already given
row	Compound	binding response (% of control)
20	Cc1ccc(C(=O)O)cc1NC(=S)NC(=O)c1ccc(-c2ccc(Cl)cc2)o1	inconclusive: 108%
1	CCCCN(CCCC)c1cn[nH]c(=O)c1Cl	active: 16.2%
2	CCc1nc2ccccc2n1Cc1ccccc1F	inconclusive: 117%
3	O=c1[nH]n(CCO)c(=O)c2cccnc12	inconclusive: 126%
4	Cc1nn(Cc2ccc(F)cc2)c2sc(C(=O)Nc3ccccc3N3CCOCC3)cc12	inactive: 90.8%
5	Cc1cc(C)c(NC(=O)NC(=O)C(Cl)(Cl)Cl)c(C)c1	inconclusive: 102%
6	COc1ccc(-c2nc3ccccc3s2)cc1NC(C)=O	inconclusive: 87.5%
7	CC(=O)Nc1sc2c(c1C(N)=O)CCN(Cc1ccccc1)C2	inconclusive: 105%
8	Cn1nc(-c2ccccc2)cc1NC(=O)C1CCCCC1	inconclusive: 75.1%
9	Cc1ccccc1OCc1csc(N)n1	inconclusive: 99.5%
10	O=C(CC1SCCNC1=O)Nc1ccc(Cl)c(Cl)c1 (stereo not drawn)	inconclusive: 106%
11	O=C(/C=C/c1cc([N+](=O)[O-])ccc1OC(F)F)NCc1ccc(Cl)cc1	inactive: 104%
12	COc1ccc2cc1Oc1ccc(cc1)C[C@H]1c3cc(c(OC)cc3CCN1C)Oc1c(O)c(OC)cc3c1[C@H](C2)N(C)CC3	inconclusive: 86.2%
13	CCOc1cc(C(=O)NCC(=O)N/N=C/c2sccc2C)cc(OCC)c1OCC	inconclusive: 122%
14	CC(C)(C)Cn1c(=O)[nH]c(=O)c2cc([N+](=O)[O-])cnc21	inactive: 92.1%

# (further entries)

row,Compound,binding response (% of control)
1,COc1ccc(NC(=O)C(Cc2ccccc2)n2cccc2)c(OC)c1 (stereo not drawn),inconclusive: 115%
2,CCCCCC(=O)N/N=C(\C)c1ccc(NC(=O)c2ccco2)cc1,inactive: 110%
3,Cc1c(C#N)c(NC(=O)CCl)n(Cc2ccc(F)cc2)c1C,inactive: 97.2%
4,COc1ccc2c(C)cc(C)nc2n1,inconclusive: 105%
5,CCOC(=O)CSc1nc(C)c(Oc2ccc(Cl)cc2Cl)c(=O)[nH]1,inconclusive: 115%
6,CCCN1CCC(=O)N([C@H](CSc2ccc(Br)cc2)Cc2ccccc2)CC1,inconclusive: 106%
7,Cc1cccc(NC(=O)c2ccco2)c1C(=O)O,inconclusive: 28.3%
8,NC(=O)CC(NC(=O)Cc1ccc(Br)cc1)c1ccc(NCc2ccc(F)cc2)c([N+](=O)[O-])c1 (stereo not drawn),inconclusive: 104%
9,CC1=CCC(C(=O)O)(C(=O)N/N=C/c2cccnc2)C(c2ccccc2)C1 (stereo not drawn),inconclusive: 89.4%
10,N#Cc1c(C#N)c(O)c2ccccc2c1O,inconclusive: 73%
11,NS(=O)(=O)c1ccc(CCNC(=O)COC(=O)/C=C/c2ccc(Cl)cc2)cc1,inactive: 102%
12,CCOC(=O)NNc1ccc(C(F)(F)F)cn1,inconclusive: 44.8%
13,COc1ccc(S(=O)(=O)N(C)c2ccc(C(=O)N3CCC(C(N)=O)CC3)cc2)cc1,inactive: 98.3%
14,Cc1ccsc1C1C(C#N)=C(N)N(N(C)C)C2=C1C(=O)CC(C)(C)C2 (stereo not drawn),inactive: 102%
15,O=C(NC(=S)Nc1ccc(CN2CCOCC2)cc1)c1ccc(-c2ccc(Br)cc2)o1,inconclusive: 42.9%
16,Cc1ccc(-c2nnc(Nc3ccc4c(c3)nc(C)n4C)c3ccccc23)cc1,inactive: 97.2%
17,CC(C)(C)C(=O)Nc1ccc(NC(=O)C(C)(C)C)cc1,inconclusive: 75.8%
18,COc1ccccc1/C=C/C(=O)NCC(=O)n1nc(C)cc1C,inconclusive: 133%

# Reference: PubChem BioAssay AID1439 (NMMLSC, 2008)
